Data: US5436273A, “Psychoactive propargylamine derivatives used in the treatment of anxiety, psychotic states or aggression” (Lowchol Scientific, Inc., priority 1993, dated 1995)

Test: Rotarod neurotoxicity test in mice
Details: mouse, in vivo

CN1C(=O)CN=C(c2ccccc2)c2cc(Cl)ccc21 [Diazepam]
TD50 at 0.5 h (ip): 6 mg/kg
TD50 (po): 13 mg/kg
